The list shows a part of the results.
Test system: T1, CTL2-GFP (C. trachomatis L2/434/Bu, GFP-expressing)
T1 construct: L2/434/Bu, GFP-expressing
Set-up: species or system HeLa; Intracellular C. trachomatis growth in HeLa cells, bulk GFP fluorescence relative to DMSO
Settings: bulk GFP, single well; 28.5 h, 10 µM; inhibitor

Row | SMILES | % of control remaining [%]
1 | N=c1sc(Cc2cc(Cl)ccc2Cl)cn1CC(=O)c1ccccc1 [CBK263584B] | 124.781
2 | C[C@@H]1CN(C(=O)c2cc3ccccc3n2C)C[C@H](C)O1 [CBK200234] | 126.696
3 | Nc1cccc(-c2cncc(Nc3ccccc3)n2)c1 [CBK065265] | 218.324
4 | COc1ccccc1Oc1ccc(C(F)(F)F)cc1[N+](=O)[O-] [CBK002845] | 99.3288
5 | Nc1nn2c(c1Cc1c(Cl)cccc1Cl)OCC2 [CBK088759] | 128.239
6 | CN1CCC(NC2(Cc3cc(-c4ccccn4)on3)COC2)CC1 [CBK289249] | 179.009
7 | O=C(Nc1ccc(Cl)cc1)NC(C(=O)O)c1ccccc1 (stereo not shown) [CBK267405] | 100.629
8 | CCc1cccc(CC)c1NC(=O)CN(c1cccc(Cl)c1Cl)S(C)(=O)=O [CBK265934] | 122.402
9 | CCOC(=O)Cc1csc(NS(=O)(=O)c2cn(C)cn2)n1 [CBK000888] | 104.016
10 | Cc1c(C)n(CC(O)CN2C(=O)c3ccccc3S2(=O)=O)c2ccccc12 (stereo not shown) [CBK263960] | 100
11 | COc1cc(CNCc2ccccn2)ccc1OCc1cccc(Cl)c1 [CBK269877C] | 115.22
12 | Nc1ccc2cc(-c3cccc(OCc4ccccc4)c3)cnc2n1 [CBK081172] | 100.437
13 | CCCC/C=C/c1cnc(N)c(N2CCOCC2)n1 [CBK063398] | 199.304
14 | CS(=O)(=O)c1ccc(CN2CCC3(CCN(Cc4ccccc4)CC3)C2)cc1 [CBK144066T] | 100
15 | O=C(NCc1ccccc1OC1CCNC1)c1cnccn1 (stereo not shown) [CBK029462T] | 139.585
16 | C=C[C@H]1C[N@@]2CC[C@H]1C[C@@H]2CNS(=O)(=O)c1cccc(C#N)c1 [CBK288750] | 107.552
17 | CN(Cc1cnn(C)c1)C(=O)C1CCCN1Cc1ccccn1 (stereo not shown) [CBK305092] | 91.4158
18 | COc1ccc(OC(=O)N2CCC(n3c(=O)[nH]c4ccccc43)CC2)cc1 [CBK149868] | 148.915
19 | COc1ccccc1N1CCN(C2CCN(S(=O)(=O)c3ccc(NC(C)=O)cc3)CC2)CC1 [CBK264688] | 124.274
20 | CC(C)c1ccccc1OCC(=O)N1CCCc2c(cnn2C)C1 [CBK285287] | 99.9731
21 | COc1ccccc1CNCc1ccccc1OC [CBK262168] | 100
22 | Cc1ccc(C(=O)N/C(=C\c2ccccc2F)c2n[nH]c(=S)[nH]2)cc1 [CBK263136] | 107.807
23 | CCCN(C(=O)C1CC1)c1nc2c(s1)CCc1c-2cnn1C [CBK281930] | 102.116
24 | N#CC1(NC(=O)CN2CCOC(Cn3cccn3)C2)CCCCC1 (stereo not shown) [CBK305268] | 135.009
25 | Cc1cccnc1NC(=O)COc1ccc(Cl)cc1Cl [CBK262154] | 92.5341
26 | CCn1c(N2CCC(C(=O)NCC3CC3)CC2)nc2ccccc21 [CBK283983] | 96.5003
27 | COc1ccc(C)cc1C1(CNC(=O)C2CCC(=O)N2)CCOCC1 (stereo not shown) [CBK304967] | 117.567

Looked up above.
COc1ccccc1CNCc1ccccc1OC [CBK262168] | % of control remaining [%]: 100
Nc1ccc2cc(-c3cccc(OCc4ccccc4)c3)cnc2n1 [CBK081172] | % of control remaining [%]: 100.437
CCn1c(N2CCC(C(=O)NCC3CC3)CC2)nc2ccccc21 [CBK283983] | % of control remaining [%]: 96.5003

The list continues:

Row | SMILES | % of control remaining [%]
28 | Cc1cc(NC(=O)Cc2ccccc2)nc2c1c(=O)oc1ccccc12 [CBK291127] | 114.562
29 | COc1ccc(-c2cc(C(=O)Nc3ccc(S(N)(=O)=O)cc3)c3ccccc3n2)cc1OC [CBK263635] | 100
30 | COc1ccc(CN2CCC(Cc3ccccc3-c3cccc(F)c3)(C(N)=O)CC2)cc1 [CBK286277] | 153.309
31 | CCC(c1ccccc1)N1CCN(Cc2noc(C)n2)CC1 (stereo not shown) [CBK305084] | 80.3646
32 | O=C(C1=C(O)C(=O)N(Cc2ccncc2)C1c1cccc(OCc2ccccc2)c1)c1cccs1 (stereo not shown) [CBK266247] | 139.23
33 | CC1(C)CC(=O)C2=C(C1)NC(Nc1nc3ccccc3s1)=NC2c1cccnc1 (stereo not shown) [CBK270025] | 103.221
34 | Cc1ccnc2nc(C(=O)OCC(=O)Nc3ccc4c(c3)CCC4)nn12 [CBK305853] | 101.06
35 | Cc1nn(CC(C)C(=O)NCCN2CCC(C)CC2)c(C)c1Cl (stereo not shown) [CBK281570] | 120.459
36 | COc1cc(OC)nc(CN2C(=O)CC3(C2=O)C(=O)N(CCCN(C)C(=O)c2ccco2)c2ccc(F)cc23)n1 (stereo not shown) [CBK076006] | 112.851
37 | COc1ccc(N2CC(C(=O)N(C)CC(F)(F)F)CC2=O)cc1 (stereo not shown) [CBK281510] | 139.764
38 | O=C(O)CC1SC(Nc2ccc(F)cc2F)=NC1=O (stereo not shown) [CBK200115] | 114.112
39 | COc1ccc(-c2ccc(=O)n3c2[C@@H]2C[C@@H](CN(C(=O)NC4CCCCC4)C2)C3)cc1 [CBK289189] | 152.608
40 | Cc1ccc(CC(=O)N2CCC(Cc3ccccc3-c3ccccc3C)(C(N)=O)CC2)cc1 [CBK285727] | 96.1603
41 | O=C(Nc1ccc2oc(-c3cccnc3)nc2c1)c1ccc(N2CCOCC2)c([N+](=O)[O-])c1 [CBK268664] | 83.2987
42 | CC(C)c1ccc(C(C)NC(=O)Cn2cccc(C(=O)NC3CCCCC3)c2=O)cc1 (stereo not shown) [CBK286044] | 107.503
43 | COc1ccc(C(C)C)cc1-c1nc(N)cc2cccnc12 [CBK081178] | 94.0635
44 | Cc1c(-c2cccc(NC(=O)c3ccccc3)c2)nc2ncccn12 [CBK287504] | 142.248
45 | Cc1cccc(-n2ncc3c(NCCCN4CCOCC4)ncnc32)c1 [CBK265710] | 202.778
46 | CCC1CCCCN1C(=O)c1ccc(C(F)(F)F)cc1 (stereo not shown) [CBK081165] | 133.361
47 | CN(C)C1=NC(N(C)C)=NP(N(C)C)(N(C)C)=N1 [CBK261057] | 102.435
48 | CCC(C)NC(=O)CSc1nnc(-c2cccs2)n1CC (stereo not shown) [CBK296960] | 97.4605
49 | Cc1c(C(=O)N(C)Cc2csc3ccccc23)nnn1C1CCNCC1 [CBK304103] | 97.8304
50 | Cc1cc2c(cc3c(=O)n(CC(=O)NC4CCC4)nc(C)n32)s1 [CBK284118] | 106.052
51 | CCCCN(CCCC)c1nccnc1Cl [CBK001576] | 103.881
52 | CC(=O)Nc1ccc(NC(=O)/C=C/c2ccc(Cl)cc2)cc1 [CBK264766] | 86.8877
53 | O=C(CCc1nc2ccccc2c(=O)[nH]1)N1CCN(Cc2ccc(Cl)s2)CC1 [CBK296937] | 117.243
54 | Cc1cccn2c(CN3CC(O)C3)c(C(=O)N3CCCCC3)nc12 [CBK306662] | 127.646

Row | SMILES | % of control remaining [%]
55 | O=C(O)c1cc(S(=O)(=O)NC(CO)C(O)c2ccc([N+](=O)[O-])cc2)ccc1Br (stereo not shown) [CBK262515] | 122.295
56 | Cc1ccc(-n2nnc3c(SCC(=O)Nc4ccc(F)cc4)ncnc32)cc1 [CBK287542] | 116.527
57 | Cc1cc(N2CCN(C(=O)CCc3ccco3)CC2)nc(C(C)C)n1 [CBK305367] | 109.573
58 | CC(NC(=O)n1ccc2c(N3CCNCC3)cccc21)c1ccccc1 (stereo not shown) [CBK003729C] | 144.274
59 | CCN1C(=O)/C(=C\NN=C2CCCC2)c2ccc(C3=NNC(=O)CC3)cc21 [CBK263515] | 100
60 | COc1ccc(-c2nc(=S)c3c(n2CCCO)CCCC3)cc1 [CBK027898] | 132.478
61 | CCCS(=O)(=O)NC1CC(C)(C)Cc2c1cnn2-c1ccc(OC)cc1 (stereo not shown) [CBK306730] | 118.525
62 | Cc1ccc(S(=O)(=O)N2CCN(CCC(=O)O)CC2)cc1C [CBK269416] | 105.031
63 | O=C(c1ccoc1)N1CCC2(CCCN(Cc3c(F)cccc3F)C2)C1 (stereo not shown) [CBK132806] | 68.9614
64 | O=C(O)c1ccc(-c2n[nH]c(=O)c3c2CCCC3)cc1 [CBK287868] | 118.592
65 | COCCn1ccnc1C1CCN(C(=O)COc2cccc(F)c2)CC1 [CBK307362] | 108.639
66 | Cc1nccn1CCC(=O)NCCc1ccc(N(C)C)cc1 [CBK281954] | 127.904
67 | Cc1nnc2n1-c1ccccc1SC(c1ccccc1)C2 (stereo not shown) [CBK016040] | 98.918
68 | CC(C)(C)c1cc(CN2CCN(c3ccccn3)CC2)cc(C(C)(C)C)c1O [CBK261520] | 76.4151
69 | COc1cc(C(=O)N2CCC3(CC2)CC(=O)c2cc(C)ccc2O3)cc(-c2ccc(OC)c(OC)c2)c1 [CBK168271] | 137.183
70 | Cc1nc(=O)c(-c2ccccc2)c(C)n1-c1ccc(OCC(=O)O)cc1 [CBK286615] | 129.358
71 | CCc1ccc2c(c1)C(CCNC(=O)c1ncccc1F)C(=O)N2 (stereo not shown) [CBK304727] | 109.003
72 | CC(=O)Nc1ccc(-c2cncc(NCCCO)n2)cc1 [CBK065598] | 109.565
73 | O=c1[nH]c(=O)c2cc(S(=O)(=O)N3CCC(c4ccccc4)C3)ccc2[nH]1 (stereo not shown) [CBK286382] | 98.1751
74 | CN(C)Cc1c(O)ccc2occ(C(=O)c3ccccc3)c12 [CBK261965] | 119.638
75 | COc1ccccc1C(=O)Nc1ccc2nc(SCC(=O)NC3CC3)sc2c1 [CBK070791] | 93.7577
76 | CCOc1ccccc1-c1noc(CSc2nnc(-c3ccncc3)n2-c2cccc(C)c2)n1 [CBK269076] | 111.712
77 | CN(Cc1cccc(C(F)(F)F)c1)C(=O)c1cn(CC2CCCO2)nn1 (stereo not shown) [CBK304360] | 109.204
78 | Cc1noc(C)c1S(N)(=O)=O [CBK022939] | 111.977
79 | Cc1cc(OC(C)C(=O)Nc2ccc(S(=O)(=O)Nc3onc(C)c3C)cc2)cc(C)c1Cl (stereo not shown) [CBK267887] | 94.0193

Grouped by structure: those above with a cyano group
Row | SMILES | % of control remaining [%]
16 | C=C[C@H]1C[N@@]2CC[C@H]1C[C@@H]2CNS(=O)(=O)c1cccc(C#N)c1 [CBK288750] | 107.552
24 | N#CC1(NC(=O)CN2CCOC(Cn3cccn3)C2)CCCCC1 (stereo not shown) [CBK305268] | 135.009
